Data taken from article PMC10907716.
No constants are given. Whether binding was seen depends on the method and setting. For some assays here: Binding seen in cells or lysates may run through a third protein. Some binding calls cover weakened binding; strength is not graded here. For some assays here: Where a sequence is shown, tags or fusion partners need not be part of it. Blank lines part the entries; values can stand above or below the molecule they belong to.

The chains behind the UniProt entries cited, without tags or fusion partners.
UniProt Q9NQB0: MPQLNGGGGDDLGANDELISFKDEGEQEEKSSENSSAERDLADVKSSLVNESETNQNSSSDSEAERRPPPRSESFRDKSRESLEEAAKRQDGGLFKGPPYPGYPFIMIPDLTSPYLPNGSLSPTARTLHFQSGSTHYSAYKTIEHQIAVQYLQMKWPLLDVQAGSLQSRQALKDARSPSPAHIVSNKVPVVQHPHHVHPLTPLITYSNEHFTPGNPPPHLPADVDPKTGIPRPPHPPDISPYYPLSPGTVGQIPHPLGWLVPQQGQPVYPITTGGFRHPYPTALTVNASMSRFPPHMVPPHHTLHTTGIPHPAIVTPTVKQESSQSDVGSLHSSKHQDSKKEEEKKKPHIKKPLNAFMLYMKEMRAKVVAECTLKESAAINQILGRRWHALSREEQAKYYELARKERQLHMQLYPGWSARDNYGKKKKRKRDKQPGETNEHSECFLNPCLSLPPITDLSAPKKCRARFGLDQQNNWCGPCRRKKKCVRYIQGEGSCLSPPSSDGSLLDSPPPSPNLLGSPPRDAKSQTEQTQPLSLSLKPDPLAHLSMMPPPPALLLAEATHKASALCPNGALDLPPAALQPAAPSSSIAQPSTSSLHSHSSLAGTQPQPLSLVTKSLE

Key:
GST-TRIB3 fusion protein = GST-TRIB3 fusion protein (UniProt Q96RU7); assay: pull-down; purified TCF4 protein or β-catenin incubated overnight at 4 °C with GST or GST-TRIB3 fusion proteins in the presence of glutathione-sepharose beads; both purified
[1] = biological target: Tribbles pseudokinase 3 (TRIB3) (human (endogenous in HNSCC cell lines)) (UniProt Q96RU7); assay: co-IP; HNSCC cell lysate incubated with Protein A/G Plus-Agarose and anti-TCF4, anti-TRIB3 or anti-β-catenin antibody overnight at 4 °C, washed 5 times with PBS, immunoblot; normal rabbit IgG as control; β-catenin/TCF4 co-IP also in cells with or without TRIB3 knockdown
[2] = biological target: T1, β-catenin (human (endogenous in HNSCC cell lines)), P35222; assay: as above; settings: remark: other sources report otherwise
T1 chain: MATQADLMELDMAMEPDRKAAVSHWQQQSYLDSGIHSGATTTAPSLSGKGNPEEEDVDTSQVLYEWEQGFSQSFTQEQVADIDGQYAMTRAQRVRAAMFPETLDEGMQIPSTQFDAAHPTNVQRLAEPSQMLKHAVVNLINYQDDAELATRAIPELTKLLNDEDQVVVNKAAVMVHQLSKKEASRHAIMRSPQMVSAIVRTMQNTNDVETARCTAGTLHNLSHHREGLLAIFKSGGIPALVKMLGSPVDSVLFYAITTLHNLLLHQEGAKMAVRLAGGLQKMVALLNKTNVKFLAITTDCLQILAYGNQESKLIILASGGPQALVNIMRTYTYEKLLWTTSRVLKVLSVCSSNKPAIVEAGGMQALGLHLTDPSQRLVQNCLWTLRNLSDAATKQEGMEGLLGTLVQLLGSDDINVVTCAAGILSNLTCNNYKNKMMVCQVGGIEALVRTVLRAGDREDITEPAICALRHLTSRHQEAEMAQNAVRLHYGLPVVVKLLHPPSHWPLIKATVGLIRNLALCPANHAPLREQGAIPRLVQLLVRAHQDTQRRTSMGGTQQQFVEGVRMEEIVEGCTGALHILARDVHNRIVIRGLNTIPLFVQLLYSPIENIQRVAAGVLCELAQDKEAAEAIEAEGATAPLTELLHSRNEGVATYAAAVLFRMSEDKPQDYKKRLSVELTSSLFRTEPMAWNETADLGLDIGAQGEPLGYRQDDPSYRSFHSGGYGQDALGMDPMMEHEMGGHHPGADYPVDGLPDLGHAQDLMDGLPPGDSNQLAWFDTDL

[3] = biological target: T2, Tribbles pseudokinase 3 (TRIB3) (human (endogenous in HNSCC cell lines)), Q96RU7; assay: as above; settings: remark: other sources report otherwise
T2 chain: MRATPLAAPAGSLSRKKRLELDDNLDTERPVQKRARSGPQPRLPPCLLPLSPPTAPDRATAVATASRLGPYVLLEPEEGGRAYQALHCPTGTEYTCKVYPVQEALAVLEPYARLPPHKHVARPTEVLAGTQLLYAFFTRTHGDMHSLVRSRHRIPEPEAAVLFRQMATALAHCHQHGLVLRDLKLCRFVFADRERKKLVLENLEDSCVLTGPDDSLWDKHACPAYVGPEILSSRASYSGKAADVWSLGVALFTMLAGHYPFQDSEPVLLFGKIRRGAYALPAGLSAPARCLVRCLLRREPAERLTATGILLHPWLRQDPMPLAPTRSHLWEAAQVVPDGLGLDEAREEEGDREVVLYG

[4] = biological target: T3, GST-TRIB3 fusion protein, Q96RU7; assay: pull-down; purified TCF4 protein or β-catenin incubated overnight at 4 °C with GST or GST-TRIB3 fusion proteins in the presence of glutathione-sepharose beads; both purified; settings: remark: other sources report otherwise
T3 chain: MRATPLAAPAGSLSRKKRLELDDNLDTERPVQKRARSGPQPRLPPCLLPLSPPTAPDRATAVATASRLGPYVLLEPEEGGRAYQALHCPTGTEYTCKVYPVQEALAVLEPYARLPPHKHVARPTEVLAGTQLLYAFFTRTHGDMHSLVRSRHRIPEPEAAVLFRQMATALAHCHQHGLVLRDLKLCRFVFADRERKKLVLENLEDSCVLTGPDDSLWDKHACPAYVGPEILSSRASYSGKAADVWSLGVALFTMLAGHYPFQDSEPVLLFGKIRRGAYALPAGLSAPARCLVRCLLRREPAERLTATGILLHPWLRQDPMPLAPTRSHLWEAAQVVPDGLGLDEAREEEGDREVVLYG

Molecule: purified TCF4 protein (from UniProt Q9NQB0 1-619)
binding (GST-TRIB3 fusion protein): binds

Molecule: Transcription Factor 4 (TCF4) (from UniProt Q9NQB0 1-619)
binding [1]: binds

B1: Tribbles pseudokinase 3 (TRIB3), Q96RU7 1-358 (protein)
chain: MRATPLAAPAGSLSRKKRLELDDNLDTERPVQKRARSGPQPRLPPCLLPLSPPTAPDRATAVATASRLGPYVLLEPEEGGRAYQALHCPTGTEYTCKVYPVQEALAVLEPYARLPPHKHVARPTEVLAGTQLLYAFFTRTHGDMHSLVRSRHRIPEPEAAVLFRQMATALAHCHQHGLVLRDLKLCRFVFADRERKKLVLENLEDSCVLTGPDDSLWDKHACPAYVGPEILSSRASYSGKAADVWSLGVALFTMLAGHYPFQDSEPVLLFGKIRRGAYALPAGLSAPARCLVRCLLRREPAERLTATGILLHPWLRQDPMPLAPTRSHLWEAAQVVPDGLGLDEAREEEGDREVVLYG
binding [2]: binds

Next, values leading:

binding [3]: binds
B2: β-catenin, P35222 1-781 (protein)
chain: MATQADLMELDMAMEPDRKAAVSHWQQQSYLDSGIHSGATTTAPSLSGKGNPEEEDVDTSQVLYEWEQGFSQSFTQEQVADIDGQYAMTRAQRVRAAMFPETLDEGMQIPSTQFDAAHPTNVQRLAEPSQMLKHAVVNLINYQDDAELATRAIPELTKLLNDEDQVVVNKAAVMVHQLSKKEASRHAIMRSPQMVSAIVRTMQNTNDVETARCTAGTLHNLSHHREGLLAIFKSGGIPALVKMLGSPVDSVLFYAITTLHNLLLHQEGAKMAVRLAGGLQKMVALLNKTNVKFLAITTDCLQILAYGNQESKLIILASGGPQALVNIMRTYTYEKLLWTTSRVLKVLSVCSSNKPAIVEAGGMQALGLHLTDPSQRLVQNCLWTLRNLSDAATKQEGMEGLLGTLVQLLGSDDINVVTCAAGILSNLTCNNYKNKMMVCQVGGIEALVRTVLRAGDREDITEPAICALRHLTSRHQEAEMAQNAVRLHYGLPVVVKLLHPPSHWPLIKATVGLIRNLALCPANHAPLREQGAIPRLVQLLVRAHQDTQRRTSMGGTQQQFVEGVRMEEIVEGCTGALHILARDVHNRIVIRGLNTIPLFVQLLYSPIENIQRVAAGVLCELAQDKEAAEAIEAEGATAPLTELLHSRNEGVATYAAAVLFRMSEDKPQDYKKRLSVELTSSLFRTEPMAWNETADLGLDIGAQGEPLGYRQDDPSYRSFHSGGYGQDALGMDPMMEHEMGGHHPGADYPVDGLPDLGHAQDLMDGLPPGDSNQLAWFDTDL

binding [4]: binds
B3: purified β-catenin, P35222 1-781 (protein)
chain: MATQADLMELDMAMEPDRKAAVSHWQQQSYLDSGIHSGATTTAPSLSGKGNPEEEDVDTSQVLYEWEQGFSQSFTQEQVADIDGQYAMTRAQRVRAAMFPETLDEGMQIPSTQFDAAHPTNVQRLAEPSQMLKHAVVNLINYQDDAELATRAIPELTKLLNDEDQVVVNKAAVMVHQLSKKEASRHAIMRSPQMVSAIVRTMQNTNDVETARCTAGTLHNLSHHREGLLAIFKSGGIPALVKMLGSPVDSVLFYAITTLHNLLLHQEGAKMAVRLAGGLQKMVALLNKTNVKFLAITTDCLQILAYGNQESKLIILASGGPQALVNIMRTYTYEKLLWTTSRVLKVLSVCSSNKPAIVEAGGMQALGLHLTDPSQRLVQNCLWTLRNLSDAATKQEGMEGLLGTLVQLLGSDDINVVTCAAGILSNLTCNNYKNKMMVCQVGGIEALVRTVLRAGDREDITEPAICALRHLTSRHQEAEMAQNAVRLHYGLPVVVKLLHPPSHWPLIKATVGLIRNLALCPANHAPLREQGAIPRLVQLLVRAHQDTQRRTSMGGTQQQFVEGVRMEEIVEGCTGALHILARDVHNRIVIRGLNTIPLFVQLLYSPIENIQRVAAGVLCELAQDKEAAEAIEAEGATAPLTELLHSRNEGVATYAAAVLFRMSEDKPQDYKKRLSVELTSSLFRTEPMAWNETADLGLDIGAQGEPLGYRQDDPSYRSFHSGGYGQDALGMDPMMEHEMGGHHPGADYPVDGLPDLGHAQDLMDGLPPGDSNQLAWFDTDL
